Results reported in PMC10588558, “On the regulation of human D‐aspartate oxidase” (Protein Science : A Publication of the Protein Society, 2023).
These are yes or no findings as the source states them, for the method shown. Binding seen in cells or lysates may run through a third protein. Some binding calls cover weakened binding; strength is not graded here. Sequences can lack the tags named with a protein.

Target: T1, 3xFLAG-hDASPO 341 expressed in U87 cells (human) (UniProt Q99489)
T1 sequence: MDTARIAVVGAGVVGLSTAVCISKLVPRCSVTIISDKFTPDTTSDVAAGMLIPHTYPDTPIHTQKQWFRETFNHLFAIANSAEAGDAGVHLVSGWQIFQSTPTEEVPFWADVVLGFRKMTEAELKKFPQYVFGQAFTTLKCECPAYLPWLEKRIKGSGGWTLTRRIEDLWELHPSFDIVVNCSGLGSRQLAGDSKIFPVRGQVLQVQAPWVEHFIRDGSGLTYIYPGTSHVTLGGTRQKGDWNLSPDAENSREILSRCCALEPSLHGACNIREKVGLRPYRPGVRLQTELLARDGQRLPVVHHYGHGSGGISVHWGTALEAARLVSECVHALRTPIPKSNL
Test: proximity ligation; Duolink In Situ Orange PLA on fixed U87 cells stably expressing pLG72-ECFP and transfected with 3xFLAG-hDASPO 341 (24, 48, 72 h); mouse anti-FLAG and rabbit anti-pLG72 antibodies; confocal microscopy

- binding: binds
B1: pLG72 R30K variant (Arg30Lys), recombinant (natural protein, UniProt P59103 1-153, looked up)
chain: MLEKLMGADSLQLFRSRYTLGKIYFIGFQKSILLSKSENSLNSIAKETEEGRETVTRKEGWKRRHEDGYLEMAQRHLQRSLCPWVSYLPQPYAELEEVSSHVGKVFMARNYEFLAYEASKDRRQPLERMWTCNYNQQKDQSCNHKEITSTKAE
notes: primate-specific protein pLG72 (18 kDa), Arg30Lys variant related to schizophrenia susceptibility; kept in 0.06% N-lauroyl sarcosine; also called R30K pLG72; source: E. coli BL21-Codon plus (DE3)-RIL, recovered from insoluble inclusion bodies, purified
